Where two headings read alike, the source gives them in different places. For at least one compound, name, drawing or mass did not settle the structure.
Legend:
[1] = test system: Staphylococcus aureus biofilm formation; settings: for anti-biofilm activity (words): pure compounds
Method: Staphylococcus aureus and Streptococcus mutans biofilms were grown in Luria-Bertani (LB) broth and brain-heart infusion (BHI) medium containing 0.5% sucrose, respectively. Biofilm formation was assessed using a polystyrene 96 well microtiter plate crystal violet assay. Overnight broth cultures were diluted to an initial optical density (OD600) of 0.01 in fresh media and combined with gesho extract to obtain a final concentration of 7 mg/ml. Treatments were then serially diluted to final extract concentrations of 5, 3, 1, 0.5 and 0.25 mg/ml. Negative controls consisted of cells diluted to an initial optical density (OD600) of 0.01 in growth media without plant extract. 100 μl of treated and untreated samples were added to each well of a microtiter plate and incubated at 37° C. for 24 hours. After 24 hours, planktonic cells and spent growth media were removed from each well and the plate was washed three times in sterile water. Biofilms were then stained with 150 μl of 0.1% crystal violet for 15 minutes at 200 rpm. Excess dye was removed via washing in sterile water and the plate was allowed to air dry.
Staphylococcus aureus and Pseudomonas aeruginosa biofilms were grown in LB broth and PBM-glucose, respectively. Biofilm formation was assessed using a polystyrene 96 well microtiter plate crystal violet assay. […] DMSO was added to solubilize the treatments. Negative controls consisted of cells diluted to an initial OD600 of 0.01 in growth media without treatment. 100 μl of treated and untreated samples were added to each well of a microtiter plate and incubated at 37° C. for 24 h. After 24 h, planktonic cells and spent growth media were removed from each well and the plate was washed 3 times in sterile water. […]
Biofilm formation was assessed using a polystyrene 96 well microtiter plate crystal violet assay.^23 Overnight broth cultures were diluted to an initial OD600 of 0.01 in fresh LB and combined with a target compound to obtain a final concentration of 7 mg/ml. […] The molarity of each treatment was calculated using excel.

[2] = test system: Staphylococcus aureus stationary phase planktonic cells; settings: pure compounds, with or without 1% DMSO
Method: To assess the viability of stationary phase planktonic cell, a growth agar based assay was conducted. Spent media containing stationary phase planktonic cells was collected after a biofilm formation assay. Collected cells were serially diluted in PBS and dilutions were radially plated in 10 μl volumes on growth medium. Agar plates were incubated at 37° C. overnight to allow for colony formation. Plate counts were used to assess viability.
To assess the viability of stationary phase planktonic cells, a growth agar-based assay was conducted. Spent media containing stationary phase planktonic cells were collected from microtiter plates after the conclusion of each biofilm formation assay. The collected cells were serially diluted (1:10) in PBS and dilutions were radially plated in 10 μl volumes on growth medium. Agar plates were incubated at 37° C. overnight to allow for colony formation and plate counts were used to assess viability. Colony forming units per milliliter of culture (CFU/mL) was calculated by dividing the colony counts (C) by the volume added (V) multiplied by the dilution factor (D): […]

[3] = test system: Staphylococcus aureus log-phase planktonic cells; test: Log-phase cell antimicrobial assay; type: cell-based, Staphylococcus aureus ATCC 6538; settings: pure compounds, with or without 1% DMSO
Method: Bacteria were inoculated in 20 ml of growth media at an initial optical density (OD600) of 0.01 and incubated at 37° C., 200 rpm until log-phase was reached. One milliliter of log-phase cells was transferred to 1.5 ml microfuge tubes and growth media removed via centrifugation. Pelleted cells were washed twice with phosphate buffered saline (PBS) before resuspending the pellets in 1 ml of extract dissolved in PBS. Treatments were incubated at 37° C. for 1 hour then serially diluted in PBS and radially plated on growth agar.
Bacteria were inoculated in 20 ml of growth media at an initial optical density (OD600) of 0.01 and incubated for 4±1 h at 37° C. with shaking at 200 rpm until log phase (OD600≈0.35) was reached. 1 ml of log-phase cells was transferred to 1.5 ml microfuge tubes and the growth medium was removed via centrifugation. Pelleted cells were washed twice with phosphate buffered saline (PBS) before resuspending the pellets in 1 ml of 4-ethoxybenzoic acid or methyl gallate with or without vancomycin dissolved in PBS. Treatments were incubated at 37° C. for 1 h and then serially diluted in PBS and radially plated on growth agar.

[4] = test system: Pseudomonas aeruginosa PA01 biofilm formation; test: Pseudomonas aeruginosa biofilm formation assay; type: cell-based; settings: pure compound

CC(=O)CC(C)(C)O [HMP, 4-hydroxy-4-methyl pentanone]
effect of DMSO on anti-biofilm activity ([1]; combined with 1% DMSO): DMSO did not enhance HMP activity
anti-biofilm activity (words) [1]: significant anti-biofilm activity
anti-biofilm activity (words) ([1]; listed as 4-hydroxy-4-methyl pentanone): anti-biofilm activity
antibacterial activity against stationary phase cells [2]: did not show antibacterial activity
antibacterial activity against log phase cells [3]: did not show antibacterial activity
biofilm formation by P. aeruginosa PA01 [4]: inhibited biofilm formation
